# According to the GenesisPotency data set:
# Chains of the proteins cited; added tags and fusions are not shown. A line that says so, or that is headed by a name, gives the form on record, which may keep a tag or linker.
# UniProt P27695, as listed by the source: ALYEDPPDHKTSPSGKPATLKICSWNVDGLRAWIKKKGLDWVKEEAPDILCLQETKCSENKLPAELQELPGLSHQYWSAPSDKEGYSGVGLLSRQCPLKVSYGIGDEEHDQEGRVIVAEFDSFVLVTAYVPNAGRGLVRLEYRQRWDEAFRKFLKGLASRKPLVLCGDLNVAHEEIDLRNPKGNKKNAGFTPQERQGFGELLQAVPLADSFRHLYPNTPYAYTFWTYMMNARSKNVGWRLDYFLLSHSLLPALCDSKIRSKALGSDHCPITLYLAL
# Out of some 350,000 compounds screened, about 1,200 (0.34%) were called active. Inconclusive results (about 3%) are left out. The call rests on the fitted dose curve; in most records, active means well fitted inhibition curve with a large enough effect; inconclusive means small, poorly fitted or top-dose-only effect; inactive means no such curve, though single readings can be large or run the other way. The list shows a part of the results.
# Target: DNA repair nuclease/redox regulator APEX1, Homo sapiens (UniProt P27695)
# Assay: qHTS Assay for Inhibitors of the Human Apurinic/apyrimidinic Endonuclease 1 (APE1)
row,SMILES,outcome
1,CCCC[N+](CCCC)(CCCC)CCCC.O=c1ccn([C@@H]2O[C@H](COS(=O)(=O)[O-])[C@@H](O)[C@H]2O)c(=O)[nH]1,inactive
